No constants are given. Whether binding was seen depends on the method and setting. Binding seen in cells or lysates may run through a third protein. Some entries that bind do so weakly or less than the wild type.
Target: T1, CYLD (UniProt Q9NQC7)
T1 sequence: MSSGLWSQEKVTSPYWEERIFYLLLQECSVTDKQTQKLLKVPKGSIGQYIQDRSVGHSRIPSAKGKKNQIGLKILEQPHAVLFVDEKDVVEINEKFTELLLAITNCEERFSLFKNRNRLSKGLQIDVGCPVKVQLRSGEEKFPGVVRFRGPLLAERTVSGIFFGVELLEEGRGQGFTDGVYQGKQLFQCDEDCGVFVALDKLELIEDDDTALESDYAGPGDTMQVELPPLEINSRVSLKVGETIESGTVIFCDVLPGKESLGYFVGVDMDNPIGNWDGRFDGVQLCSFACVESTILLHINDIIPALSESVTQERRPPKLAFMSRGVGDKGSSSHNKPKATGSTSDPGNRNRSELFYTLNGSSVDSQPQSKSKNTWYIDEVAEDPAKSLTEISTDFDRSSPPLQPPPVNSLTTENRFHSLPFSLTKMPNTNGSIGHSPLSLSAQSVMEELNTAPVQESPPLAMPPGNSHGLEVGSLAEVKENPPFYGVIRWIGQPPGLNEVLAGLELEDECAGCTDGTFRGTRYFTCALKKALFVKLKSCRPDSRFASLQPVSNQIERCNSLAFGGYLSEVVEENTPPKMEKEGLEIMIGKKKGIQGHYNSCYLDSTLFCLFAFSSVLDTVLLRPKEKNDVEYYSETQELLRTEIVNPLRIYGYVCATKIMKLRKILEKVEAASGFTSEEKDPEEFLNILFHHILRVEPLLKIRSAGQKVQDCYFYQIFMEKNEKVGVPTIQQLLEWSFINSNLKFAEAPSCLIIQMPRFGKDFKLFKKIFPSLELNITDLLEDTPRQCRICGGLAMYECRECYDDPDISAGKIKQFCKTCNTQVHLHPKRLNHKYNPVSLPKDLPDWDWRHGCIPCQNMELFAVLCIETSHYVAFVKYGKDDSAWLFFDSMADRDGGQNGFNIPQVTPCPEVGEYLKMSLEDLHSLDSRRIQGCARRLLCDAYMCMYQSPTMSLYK
Assay: co-IP; HEK293T cells transfected with HER3-Flag and CYLD plasmids for 48 h; immunoprecipitated with HER3 or CYLD antibodies (Immunoprecipitation Kit, Sigma); Western blotting

By UniProt entry, the sequences of proteins in these tests, tags left out. Residues count along the entry.
UniProt P21860, residues 20-1342: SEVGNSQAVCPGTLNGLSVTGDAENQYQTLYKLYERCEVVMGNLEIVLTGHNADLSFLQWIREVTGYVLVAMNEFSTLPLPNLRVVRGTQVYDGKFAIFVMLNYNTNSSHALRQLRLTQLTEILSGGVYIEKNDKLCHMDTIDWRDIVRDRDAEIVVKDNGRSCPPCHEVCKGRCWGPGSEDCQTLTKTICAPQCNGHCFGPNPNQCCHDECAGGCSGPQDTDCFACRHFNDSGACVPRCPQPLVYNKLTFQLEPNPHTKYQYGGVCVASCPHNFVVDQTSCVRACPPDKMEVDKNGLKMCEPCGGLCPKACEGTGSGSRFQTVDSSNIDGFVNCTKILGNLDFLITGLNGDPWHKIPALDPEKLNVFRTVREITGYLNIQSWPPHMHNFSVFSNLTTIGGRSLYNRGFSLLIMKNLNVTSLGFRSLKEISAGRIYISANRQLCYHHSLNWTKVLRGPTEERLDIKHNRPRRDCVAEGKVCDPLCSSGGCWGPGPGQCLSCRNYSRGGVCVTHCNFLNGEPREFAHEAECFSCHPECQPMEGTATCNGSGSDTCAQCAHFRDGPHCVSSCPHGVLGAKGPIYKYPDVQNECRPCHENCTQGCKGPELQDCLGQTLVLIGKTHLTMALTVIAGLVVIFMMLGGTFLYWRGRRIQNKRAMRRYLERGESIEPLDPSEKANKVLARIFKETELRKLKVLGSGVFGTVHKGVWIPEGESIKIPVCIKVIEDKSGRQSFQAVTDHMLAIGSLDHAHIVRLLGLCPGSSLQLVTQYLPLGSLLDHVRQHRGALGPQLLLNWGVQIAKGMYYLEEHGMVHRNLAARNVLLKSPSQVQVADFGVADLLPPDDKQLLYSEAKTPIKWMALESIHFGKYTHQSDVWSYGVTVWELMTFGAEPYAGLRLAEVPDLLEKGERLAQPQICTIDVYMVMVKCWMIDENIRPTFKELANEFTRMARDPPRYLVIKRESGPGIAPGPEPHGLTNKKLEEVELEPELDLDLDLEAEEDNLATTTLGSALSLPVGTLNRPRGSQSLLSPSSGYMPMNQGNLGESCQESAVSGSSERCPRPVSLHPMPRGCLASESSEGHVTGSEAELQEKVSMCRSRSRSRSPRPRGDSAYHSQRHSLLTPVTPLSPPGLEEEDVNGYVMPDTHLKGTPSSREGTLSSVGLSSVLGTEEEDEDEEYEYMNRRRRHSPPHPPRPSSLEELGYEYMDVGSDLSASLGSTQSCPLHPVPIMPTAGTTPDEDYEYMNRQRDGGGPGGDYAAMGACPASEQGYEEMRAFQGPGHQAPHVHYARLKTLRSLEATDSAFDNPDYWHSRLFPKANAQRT

For “HER3-Flag (from UniProt P21860 20-1342) (receptor)”, the binding was “binds”.

Reference: publication PMC11866804
